Test results published in the supplement of paper PMC10849652.
The other results are listed elsewhere or left out.

Protein sequences, listed by entry. Tags and fused reporters are not part of them. Lines headed by an entry give the natural chain unless they say otherwise; changes in a name come on top.
UniProt Q9NPF4: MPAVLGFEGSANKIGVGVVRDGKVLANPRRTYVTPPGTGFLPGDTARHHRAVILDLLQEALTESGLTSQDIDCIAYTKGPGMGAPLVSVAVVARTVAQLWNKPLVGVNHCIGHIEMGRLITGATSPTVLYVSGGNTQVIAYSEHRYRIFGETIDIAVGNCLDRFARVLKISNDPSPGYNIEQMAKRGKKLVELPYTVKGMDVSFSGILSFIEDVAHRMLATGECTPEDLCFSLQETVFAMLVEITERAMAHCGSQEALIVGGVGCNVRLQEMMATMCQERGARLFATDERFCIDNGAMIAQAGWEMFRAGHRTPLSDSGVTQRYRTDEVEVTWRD
UniProt Q6ZVK8: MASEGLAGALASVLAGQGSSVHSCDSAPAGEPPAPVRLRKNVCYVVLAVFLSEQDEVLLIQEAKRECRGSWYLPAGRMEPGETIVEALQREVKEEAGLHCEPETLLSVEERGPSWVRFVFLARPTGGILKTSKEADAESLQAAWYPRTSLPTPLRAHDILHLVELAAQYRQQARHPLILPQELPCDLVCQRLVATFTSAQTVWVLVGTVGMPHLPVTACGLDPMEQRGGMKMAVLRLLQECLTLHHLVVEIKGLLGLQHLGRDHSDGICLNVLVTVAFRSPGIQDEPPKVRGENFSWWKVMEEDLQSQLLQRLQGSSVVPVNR
UniProt Q96HP4: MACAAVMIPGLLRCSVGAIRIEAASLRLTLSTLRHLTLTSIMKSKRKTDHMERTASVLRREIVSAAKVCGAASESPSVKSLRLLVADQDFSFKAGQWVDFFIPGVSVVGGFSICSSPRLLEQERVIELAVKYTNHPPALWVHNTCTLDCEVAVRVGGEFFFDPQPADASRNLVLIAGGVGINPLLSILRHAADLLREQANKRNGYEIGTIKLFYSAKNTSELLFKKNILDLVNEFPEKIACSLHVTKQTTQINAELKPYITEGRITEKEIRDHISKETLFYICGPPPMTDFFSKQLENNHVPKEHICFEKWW
UniProt O15504: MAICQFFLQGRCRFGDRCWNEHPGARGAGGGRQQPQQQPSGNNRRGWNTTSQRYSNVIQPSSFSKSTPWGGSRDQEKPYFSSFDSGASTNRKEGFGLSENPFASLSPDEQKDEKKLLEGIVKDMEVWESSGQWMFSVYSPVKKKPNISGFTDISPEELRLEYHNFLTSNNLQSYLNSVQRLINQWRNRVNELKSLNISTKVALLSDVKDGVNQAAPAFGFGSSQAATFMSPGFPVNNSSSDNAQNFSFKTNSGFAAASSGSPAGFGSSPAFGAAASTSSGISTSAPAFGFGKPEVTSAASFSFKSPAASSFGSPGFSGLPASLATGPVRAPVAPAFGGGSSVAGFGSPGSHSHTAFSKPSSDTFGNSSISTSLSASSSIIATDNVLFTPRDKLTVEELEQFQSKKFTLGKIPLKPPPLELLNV
UniProt P13674: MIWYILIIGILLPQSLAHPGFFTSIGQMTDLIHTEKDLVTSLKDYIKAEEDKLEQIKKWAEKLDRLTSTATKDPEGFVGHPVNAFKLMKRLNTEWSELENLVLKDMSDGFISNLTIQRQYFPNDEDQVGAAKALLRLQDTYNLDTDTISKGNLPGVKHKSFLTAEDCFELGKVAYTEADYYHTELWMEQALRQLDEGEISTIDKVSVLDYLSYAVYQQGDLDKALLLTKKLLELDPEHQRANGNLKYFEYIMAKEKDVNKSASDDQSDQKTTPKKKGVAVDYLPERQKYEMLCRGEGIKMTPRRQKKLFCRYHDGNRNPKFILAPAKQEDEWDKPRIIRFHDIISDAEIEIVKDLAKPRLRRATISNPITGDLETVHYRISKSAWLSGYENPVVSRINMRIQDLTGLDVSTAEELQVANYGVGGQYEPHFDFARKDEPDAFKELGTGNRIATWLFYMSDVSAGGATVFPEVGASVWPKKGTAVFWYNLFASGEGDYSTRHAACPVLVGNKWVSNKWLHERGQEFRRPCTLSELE
UniProt Q8TEM1: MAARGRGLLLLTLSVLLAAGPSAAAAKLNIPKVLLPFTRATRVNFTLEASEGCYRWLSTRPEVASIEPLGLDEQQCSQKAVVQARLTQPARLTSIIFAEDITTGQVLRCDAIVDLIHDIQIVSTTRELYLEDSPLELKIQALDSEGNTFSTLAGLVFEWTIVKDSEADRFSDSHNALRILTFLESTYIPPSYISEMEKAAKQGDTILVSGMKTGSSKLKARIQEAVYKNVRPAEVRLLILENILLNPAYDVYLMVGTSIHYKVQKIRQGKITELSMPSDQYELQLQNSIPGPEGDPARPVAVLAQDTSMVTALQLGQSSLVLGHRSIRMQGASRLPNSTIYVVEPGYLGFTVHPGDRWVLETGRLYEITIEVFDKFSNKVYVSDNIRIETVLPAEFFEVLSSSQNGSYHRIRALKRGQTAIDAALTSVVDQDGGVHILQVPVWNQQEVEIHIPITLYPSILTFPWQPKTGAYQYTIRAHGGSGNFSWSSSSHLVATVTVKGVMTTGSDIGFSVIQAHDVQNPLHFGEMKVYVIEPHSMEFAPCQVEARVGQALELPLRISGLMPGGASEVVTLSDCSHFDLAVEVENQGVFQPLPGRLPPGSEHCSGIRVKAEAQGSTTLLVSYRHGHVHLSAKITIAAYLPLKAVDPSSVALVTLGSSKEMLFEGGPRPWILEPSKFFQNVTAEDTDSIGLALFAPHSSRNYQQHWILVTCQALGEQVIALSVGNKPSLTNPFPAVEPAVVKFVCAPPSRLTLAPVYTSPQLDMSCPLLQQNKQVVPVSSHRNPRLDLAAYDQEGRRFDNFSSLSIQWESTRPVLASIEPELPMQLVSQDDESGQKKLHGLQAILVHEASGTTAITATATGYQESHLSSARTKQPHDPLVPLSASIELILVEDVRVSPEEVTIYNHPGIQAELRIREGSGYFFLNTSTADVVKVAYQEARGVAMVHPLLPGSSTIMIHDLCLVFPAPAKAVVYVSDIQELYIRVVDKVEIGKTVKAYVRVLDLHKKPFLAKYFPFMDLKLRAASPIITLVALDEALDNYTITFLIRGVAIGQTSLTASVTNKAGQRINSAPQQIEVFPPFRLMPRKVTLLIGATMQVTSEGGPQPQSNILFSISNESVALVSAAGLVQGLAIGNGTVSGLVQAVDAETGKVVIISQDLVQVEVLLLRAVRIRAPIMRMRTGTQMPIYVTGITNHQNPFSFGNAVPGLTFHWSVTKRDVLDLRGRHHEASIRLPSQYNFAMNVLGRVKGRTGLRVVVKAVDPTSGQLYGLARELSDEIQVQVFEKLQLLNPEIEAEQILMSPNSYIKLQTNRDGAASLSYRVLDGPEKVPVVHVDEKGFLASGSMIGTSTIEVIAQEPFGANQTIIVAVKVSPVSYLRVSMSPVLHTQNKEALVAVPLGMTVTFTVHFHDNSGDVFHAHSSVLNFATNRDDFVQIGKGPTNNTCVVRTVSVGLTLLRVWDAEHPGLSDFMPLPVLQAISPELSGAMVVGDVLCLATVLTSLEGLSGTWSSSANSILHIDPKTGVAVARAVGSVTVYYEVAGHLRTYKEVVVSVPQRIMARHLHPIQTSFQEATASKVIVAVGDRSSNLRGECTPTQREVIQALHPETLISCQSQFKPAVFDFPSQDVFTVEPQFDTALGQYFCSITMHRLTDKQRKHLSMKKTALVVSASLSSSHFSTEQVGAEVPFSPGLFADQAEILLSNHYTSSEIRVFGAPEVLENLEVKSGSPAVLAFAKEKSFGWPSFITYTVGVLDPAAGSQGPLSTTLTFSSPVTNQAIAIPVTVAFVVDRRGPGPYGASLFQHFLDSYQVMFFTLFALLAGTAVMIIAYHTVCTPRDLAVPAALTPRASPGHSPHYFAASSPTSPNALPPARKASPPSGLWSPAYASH
UniProt Q5TFE4: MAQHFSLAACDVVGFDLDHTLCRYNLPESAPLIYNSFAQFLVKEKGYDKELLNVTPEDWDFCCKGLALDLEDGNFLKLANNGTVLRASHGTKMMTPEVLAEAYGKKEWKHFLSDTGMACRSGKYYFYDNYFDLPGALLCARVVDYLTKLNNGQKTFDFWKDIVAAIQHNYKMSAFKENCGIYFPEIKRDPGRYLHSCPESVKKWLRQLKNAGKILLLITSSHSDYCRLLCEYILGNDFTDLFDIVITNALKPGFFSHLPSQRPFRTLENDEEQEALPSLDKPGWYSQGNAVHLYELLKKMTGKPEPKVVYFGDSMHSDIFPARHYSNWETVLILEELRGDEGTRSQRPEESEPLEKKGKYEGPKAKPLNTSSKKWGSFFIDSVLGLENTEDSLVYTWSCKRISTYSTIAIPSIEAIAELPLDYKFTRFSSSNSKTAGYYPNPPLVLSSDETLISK
UniProt P20774: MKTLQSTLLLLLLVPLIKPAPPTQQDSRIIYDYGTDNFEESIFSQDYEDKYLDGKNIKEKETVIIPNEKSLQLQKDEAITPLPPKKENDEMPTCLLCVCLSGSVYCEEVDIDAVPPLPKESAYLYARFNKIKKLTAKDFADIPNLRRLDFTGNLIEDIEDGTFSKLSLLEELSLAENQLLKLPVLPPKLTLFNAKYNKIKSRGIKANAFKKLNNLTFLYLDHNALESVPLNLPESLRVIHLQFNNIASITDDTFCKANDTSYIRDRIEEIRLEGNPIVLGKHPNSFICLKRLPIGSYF
UniProt Q9H1E3: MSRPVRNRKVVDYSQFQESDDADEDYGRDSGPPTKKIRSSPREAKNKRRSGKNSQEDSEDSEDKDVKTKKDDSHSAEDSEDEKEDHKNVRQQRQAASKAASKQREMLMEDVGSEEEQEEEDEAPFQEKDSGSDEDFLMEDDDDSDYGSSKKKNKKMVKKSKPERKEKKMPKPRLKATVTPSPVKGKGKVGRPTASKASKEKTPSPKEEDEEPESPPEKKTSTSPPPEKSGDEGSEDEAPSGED
UniProt Q96CB9: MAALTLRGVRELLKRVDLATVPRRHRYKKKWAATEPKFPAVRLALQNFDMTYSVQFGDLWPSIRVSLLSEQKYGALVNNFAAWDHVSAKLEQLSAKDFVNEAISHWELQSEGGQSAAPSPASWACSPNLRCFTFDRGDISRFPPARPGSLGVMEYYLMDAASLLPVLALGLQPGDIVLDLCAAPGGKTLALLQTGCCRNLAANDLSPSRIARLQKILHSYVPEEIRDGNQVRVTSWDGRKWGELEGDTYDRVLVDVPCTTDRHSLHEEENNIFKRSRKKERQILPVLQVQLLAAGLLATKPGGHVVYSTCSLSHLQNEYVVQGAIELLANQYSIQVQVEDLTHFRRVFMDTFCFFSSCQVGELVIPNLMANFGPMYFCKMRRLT
UniProt Q9BQG2: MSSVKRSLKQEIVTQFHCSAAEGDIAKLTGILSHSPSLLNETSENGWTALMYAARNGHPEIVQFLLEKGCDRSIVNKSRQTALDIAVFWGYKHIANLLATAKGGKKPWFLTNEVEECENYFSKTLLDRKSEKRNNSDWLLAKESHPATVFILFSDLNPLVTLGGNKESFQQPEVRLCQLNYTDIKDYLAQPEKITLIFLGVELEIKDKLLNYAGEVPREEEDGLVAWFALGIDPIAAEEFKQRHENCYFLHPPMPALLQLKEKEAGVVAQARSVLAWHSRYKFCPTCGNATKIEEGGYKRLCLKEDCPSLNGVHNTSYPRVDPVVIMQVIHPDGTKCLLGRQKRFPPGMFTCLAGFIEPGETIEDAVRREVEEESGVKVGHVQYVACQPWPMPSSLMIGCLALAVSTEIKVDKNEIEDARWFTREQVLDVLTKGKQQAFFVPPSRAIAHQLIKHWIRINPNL
UniProt Q8N573: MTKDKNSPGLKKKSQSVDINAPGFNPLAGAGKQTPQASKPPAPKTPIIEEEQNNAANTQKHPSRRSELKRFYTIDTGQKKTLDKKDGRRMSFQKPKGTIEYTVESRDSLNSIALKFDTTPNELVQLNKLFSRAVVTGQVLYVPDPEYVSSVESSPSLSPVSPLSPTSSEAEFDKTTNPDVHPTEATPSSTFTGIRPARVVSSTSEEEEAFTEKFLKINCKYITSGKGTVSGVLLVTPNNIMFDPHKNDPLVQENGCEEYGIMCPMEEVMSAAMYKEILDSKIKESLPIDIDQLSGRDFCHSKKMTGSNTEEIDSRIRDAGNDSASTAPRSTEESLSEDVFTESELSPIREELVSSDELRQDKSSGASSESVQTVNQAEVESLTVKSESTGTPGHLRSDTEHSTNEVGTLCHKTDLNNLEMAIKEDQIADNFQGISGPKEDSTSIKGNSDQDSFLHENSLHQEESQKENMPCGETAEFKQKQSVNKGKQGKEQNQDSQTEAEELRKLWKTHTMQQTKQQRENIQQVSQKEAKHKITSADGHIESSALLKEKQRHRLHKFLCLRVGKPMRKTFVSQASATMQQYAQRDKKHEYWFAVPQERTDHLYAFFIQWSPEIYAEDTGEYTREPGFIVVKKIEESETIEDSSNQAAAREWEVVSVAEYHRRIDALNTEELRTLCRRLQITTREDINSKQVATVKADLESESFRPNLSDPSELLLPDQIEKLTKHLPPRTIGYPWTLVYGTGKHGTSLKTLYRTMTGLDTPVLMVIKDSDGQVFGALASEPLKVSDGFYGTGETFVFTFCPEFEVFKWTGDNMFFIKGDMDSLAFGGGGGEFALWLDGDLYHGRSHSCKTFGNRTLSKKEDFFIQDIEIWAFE

Legend:
Assay in all cases: log2 fold change, soluble protein after heating vs DMSO (PISA); higher = thermal stabilisation; K562 cells, 10 uM, 30 min; active = over 0.2 and 3.5 SD of the protein, either way, in both replicates (recomputed)
[1] = compound: CC[C@@H]1C(=O)N(C)c2cnc(Nc3ccc(C(=O)NC4CCN(C)CC4)cc3OC)nc2N1C1CCCC1
In short: (§1)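 Quantification of soluble protein used TMTpro 16plex LC-MS/MS, with channel sums equalised. Samples were the supernatant after 21,000xg for 90 min of pooled aliquots from K562 cells (2×10^6 cells/mL) treated with 10 μM compound for 30 min, heated for 3 min over 48°C-58°C, and extracted in PBS with 0.5% NP-40 at 4°C. Values, from duplicates, describe thermal stability against control samples on a log2 fold-change scale.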

[2] = compound: CC[C@@H]1C(=O)N(C)c2cnc(Nc3ccc(C(=O)N[C@H]4CC[C@H](N5CCN(CC6CC6)CC5)CC4)cc3OC)nc2N1C(C)C [volasertib]
In short: as §1

[3] = compound: CC[C@H](C)N1C=C(C2=C(C=C(C=C21)C3=CN=C(C=C3)N4CCNCC4)C(=O)NCC5=C(C=C(NC5=O)C)C)C
In short: as §1

[4] = compound: CC[C@H](C)[C@@H](C(=O)N[C@@H]([C@@H](C)O)C(=O)N[C@@H](CC(C)C)C(=O)[C@]1(CO1)C)NC(=O)[C@H]([C@@H](C)CC)N(C)C(=O)C [epoxomicin]
In short: as §1

[5] = compound: CCn1c(C(=O)N(C2CC2)C2CC2)cc2c3c(ncn3C)c(Nc3cc(C)n(C)n3)nc21
In short: as §1

[6] = compound: CCn1cc(-c2ccnc3[nH]c(-c4cccc(CN(C)C)c4)cc23)c(-c2ccc(NC(=O)N(C)C)cc2)n1
In short: as §1

[7] = compound: CN(C)CC(=O)Nc1ccc2[nH]c(=O)c3ccccc3c2c1
In short: as §1

[8] = compound: CN(CCOC1=CC=C(C=C1)C[C@H]2C(=O)NC(=O)S2)C3=CC=CC=N3 (racemic) [rosiglitazone]
In short: as §1

[9] = compound: CN1C2=C(C3=C1C(=O)N(N=C3)CC4=CC(=CC=C4)N)SC(=C2)S(=O)C
In short: as §1

[10] = compound: CN1CCC(CNc2ccc3ncc(-c4cccc(OC(F)(F)F)c4)n3n2)CC1
In short: as §1

Measured: log2 fold change

OGDH (UniProt Q02218)
inactive: [1] 0.015 | [2] 0.13 | [3] 0.048 | [4] 0.03 | [5] -0.079 | [6] -0.042 | [7] 0.009 | [8] 0.087 | [9] 0.06 | [10] 0.087

OSGEP (UniProt Q9NPF4)
inactive: [1] 0.022 | [2] 0.055 | [3] -0.042 | [4] 0.013 | [5] -0.036 | [6] -0.012 | [7] -0.008 | [8] 0.031 | [9] -0.071 | [10] 0.004

P3H1 (UniProt Q32P28)
inactive: [1] -0.003 | [2] 0.008 | [3] 0.022 | [4] -0.006 | [5] 0.009 | [6] 0.054 | [7] -0.017 | [8] -0.05 | [9] 0.088 | [10] 0.113

NUDT18 (UniProt Q6ZVK8)
inactive: [1] 0.02 | [2] 0.165 | [3] -0.08 | [4] 0.208 | [5] -0.042 | [6] -0.129 | [7] -0.062 | [10] -0.25

NUDT9 (UniProt Q9BW91)
inactive: [1] -0.097 | [2] -0.181 | [3] 0.024 | [4] 0.009 | [5] 0.049 | [6] -0.067 | [7] 0.014 | [8] 0.069 | [9] -0.016 | [10] 0.097

NUP205 (UniProt Q92621)
inactive: [1] -0.108 | [3] 0.079 | [4] -0.071 | [6] -0.013 | [7] 0.032 | [9] -0.041
active: [2] -0.35 | [10] -0.233

OXNAD1 (UniProt Q96HP4)
inactive: [1] 0.013 | [2] -0.009 | [3] -0.005 | [4] 0.055 | [5] -0.01 | [6] 0.019 | [7] -0.037 | [8] -0.018 | [9] -0.046 | [10] 0.053

PABPC1 (UniProt P11940)
inactive: [1] 0.135 | [2] 0.103 | [3] 0.072 | [4] -0.106 | [5] 0.068 | [6] 0.052 | [7] -0.054 | [8] -0.041 | [9] 0.091 | [10] -0.011

OXSR1 (UniProt O95747)
active: [2] -0.274 | [10] -0.24
inactive: [1] -0.122 | [3] 0.049 | [4] 0.03 | [6] -0.077 | [7] 0.043 | [9] 0.008

NUP42 (UniProt O15504)
inactive: [1] 0.206 | [2] 0.193 | [3] -0.221 | [4] -0.412 | [5] 0.074 | [6] 0.381 | [8] -0.301 | [9] 0.256 | [10] 0.393

P4HA1 isoform 2 (UniProt P13674)
inactive: [1] 0.004 | [2] 0.045 | [3] 0.069 | [4] 0.069 | [6] 0.022 | [7] -0.02 | [8] 0.002 | [9] 0.136 | [10] 0.078

NSMCE3 (UniProt Q96MG7)
inactive: [1] 0.093 | [2] 0.032 | [3] -0.121 | [4] -0.004 | [5] -0.033 | [6] -0.016 | [7] 0.008 | [8] -0.014 | [9] 0.023 | [10] 0.204

OTUD7B (UniProt Q6GQQ9)
inactive: [1] -0.293 | [2] -0.276 | [3] 0.114 | [4] -0.005 | [5] -0.079 | [6] 0.141 | [7] 0.008 | [8] 0.325 | [9] 0.081 | [10] -0.242

NUDT16 (UniProt Q96DE0)
inactive: [1] 0.038 | [2] 0.033 | [3] -0.059 | [4] 0.009 | [6] -0.073 | [7] -0.011 | [9] -0.069 | [10] -0.035

NUP210 (UniProt Q8TEM1)
active: [10] -0.348
inactive: [1] -0.001 | [2] -0.12 | [3] 0 | [4] 0.03 | [6] -0.053 | [7] 0.03 | [9] -0.026

NSUN5 isoform 2 (UniProt Q96P11)
inactive: [1] 0.102 | [2] -0.049 | [3] 0.046 | [4] 0.004 | [5] 0.043 | [6] 0.085 | [7] -0.039 | [8] -0.113 | [9] 0.112 | [10] -0.032

NT5DC1 (UniProt Q5TFE4)
inactive: [1] 0.165 | [2] 0.051 | [3] -0.026 | [4] 0.045 | [6] -0.054 | [7] 0.014 | [9] -0.037 | [10] -0.063

NUDT5 (UniProt Q9UKK9)
inactive: [1] 0.009 | [2] 0.032 | [3] -0.019 | [4] 0.008 | [5] 0.026 | [6] 0.022 | [7] -0.006 | [8] -0.01 | [9] -0.017 | [10] -0.021

OGN (UniProt P20774)
inactive: [1] 0.053 | [2] 0.04 | [3] -0.092 | [4] -0.19 | [5] 0.295 | [7] -0.031 | [8] 0.104 | [9] 0.098

NUP155 (UniProt O75694)
inactive: [1] -0.005 | [2] -0.023 | [3] 0.061 | [4] 0.007 | [5] -0.058 | [6] -0.075 | [7] 0.024 | [8] 0.073 | [9] -0.077 | [10] -0.092

NUCKS1 (UniProt Q9H1E3)
inactive: [1] -0.061 | [2] -0.012 | [3] -0.028 | [4] 0.016 | [6] 0.014 | [7] -0.073 | [9] -0.043 | [10] -0.083

3 records picked at random from those above:
NT5DC1 (UniProt Q5TFE4)
inactive: [1] 0.165 | [2] 0.051 | [3] -0.026 | [4] 0.045 | [6] -0.054 | [7] 0.014 | [9] -0.037 | [10] -0.063

NSUN5 isoform 2 (UniProt Q96P11)
inactive: [1] 0.102 | [2] -0.049 | [3] 0.046 | [4] 0.004 | [5] 0.043 | [6] 0.085 | [7] -0.039 | [8] -0.113 | [9] 0.112 | [10] -0.032

NUP155 (UniProt O75694)
inactive: [1] -0.005 | [2] -0.023 | [3] 0.061 | [4] 0.007 | [5] -0.058 | [6] -0.075 | [7] 0.024 | [8] 0.073 | [9] -0.077 | [10] -0.092

(further entries)

NSMCE1 (UniProt Q8WV22)
inactive: [1] -0.068 | [2] 0.167 | [3] 0.071 | [4] -0.083 | [5] 0.009 | [7] -0.084 | [9] -0.119

NSUN7 (UniProt Q8NE18)
inactive: [1] 0.197 | [2] 0.133 | [3] -0.008 | [4] -0.105 | [5] -0.052 | [6] 0.311 | [7] -0.115 | [8] 0.079 | [10] -0.285

OGFOD3 isoform 2 (UniProt Q6PK18)
inactive: [1] 0.028 | [2] -0.001 | [3] -0.081 | [4] 0.014 | [5] -0.025 | [6] -0.165 | [7] -0.052 | [8] 0.015 | [9] 0.051 | [10] 0.098

OSBPL8 (UniProt Q9BZF1)
inactive: [1] -0.068 | [2] -0.026 | [3] 0.062 | [4] -0.118 | [6] 0.061 | [7] 0.055 | [9] 0.09 | [10] -0.114

NUP188 (UniProt Q5SRE5)
inactive: [1] -0.081 | [2] -0.204 | [3] 0.055 | [4] 0.015 | [5] -0.097 | [6] -0.035 | [7] 0.063 | [8] 0.132 | [9] -0.03 | [10] -0.07

ODR4 (UniProt Q5SWX8)
inactive: [1] 0.001 | [2] -0.088 | [3] 0.056 | [4] -0.027 | [5] -0.049 | [6] -0.108 | [7] 0 | [8] 0.087 | [9] -0.043 | [10] 0.025

NSUN4 (UniProt Q96CB9)
inactive: [1] 0.076 | [2] 0.064 | [3] 0.046 | [4] 0.009 | [5] -0.033 | [6] -0.018 | [7] -0.064 | [8] -0.047 | [9] 0.099 | [10] 0.04

OPA3 (UniProt Q9H6K4)
inactive: [1] 0.043 | [2] 0.072 | [3] 0.067 | [4] 0.108 | [5] 0.022 | [7] -0.039 | [8] 0.064 | [9] 0.002

ORC2 (UniProt Q13416)
inactive: [1] 0.044 | [2] -0.333 | [3] 0.047 | [4] 0.052 | [5] -0.086 | [6] -0.075 | [8] 0.06 | [10] -0.318

NUDT12 (UniProt Q9BQG2)
inactive: [1] -0.053 | [2] -0.016 | [3] 0.076 | [4] 0.067 | [5] 0.042 | [6] -0.056 | [7] 0.035 | [8] 0.023 | [9] 0.076 | [10] 0.076

OARD1 (UniProt Q9Y530)
inactive: [1] -0.077 | [2] -0.152 | [3] 0.003 | [4] 0.037 | [5] -0.058 | [7] 0.078 | [8] 0.089 | [9] 0.013

OXR1 (UniProt Q8N573)
inactive: [1] -0.052 | [2] -0.071 | [3] 0.035 | [4] -0.013 | [6] 0.026 | [7] 0.062 | [9] -0.033
active: [10] -0.257
